Results as given in PubChem BioAssay AID504444 (National Center for Advancing Translational Sciences (NCATS), 2011).
Screen size: about 360,000 compounds; about 7,500 (2.1%) were called active. Inconclusive results, whose numbers are uncertain, are shown with a selection of clear calls. The call rests on the fitted dose curve; in most records, active means well fitted inhibition curve with a large enough effect; inconclusive means small, poorly fitted or top-dose-only effect, or effect the other way; inactive means flat fitted curve, though single readings scatter. Potencies of inconclusive entries are doubtful fits and often do not repeat.

assay: Nrf2 qHTS screen for inhibitors; details: A549 ARE-Fluc reporter, luciferase luminescence, 18-24 h; series mostly up to 46 µM; further: nearly all actives have a fitted effect of over 60% in size
Outline: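 A549 ARE_Fluc cells, 5000/well, 5% FBS OPTI-MEM; compounds in dose-response, 18-24 h at 37 °C/5% CO2; CellTiter-Fluor viability read (Ex 405/Em 525), then BugLite luciferase luminescence = Nrf2 activity.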
Potency means the concentration at half of the fitted maximal effect.

| Compound | Potency |
| --- | --- |
| C/C(=N\Nc1nc2ccccc2[nH]1)c1ccc([N+](=O)[O-])cc1 | inconclusive: 7.31 µM [falling, partial curve, poor fit] |
| Cc1noc(C)c1C(=O)OCC(=O)/C=C1\N(C)c2ccccc2C1(C)C | inconclusive: 8.2 µM [falling, partial curve] |
| CCCCNC(=O)[C@@H]1CC=C[C@@H]2CCN(Cc3ccc(Cl)c(Cl)c3)C(=O)[C@@H]21 | inconclusive: 25.9 µM [falling, single point] |
| CCOC(=O)c1c(NC(=O)COC(=O)c2ccc(O)cc2)sc(C(=O)NC)c1C | inconclusive: 18.4 µM [falling, single point] |
| CCn1cc(CCC(=O)O)c(C)n1 | inconclusive: 0.291 µM [falling, full curve, poor fit] |
| COc1ccc(N2CCN(C(=O)CCCn3c(=O)c4cccn4c4cccnc43)CC2)cc1 | inconclusive: 32.6 µM [falling, partial curve, poor fit] |
| CCCNC(=S)N1CCN(c2nc(C)nc3sc4c(c23)CCCC4)CC1 | inconclusive: 0.517 µM [falling, full curve, poor fit] |
| CCOc1ccc(S(=O)(=O)NCC(=O)OCc2nnc(-c3ccccc3)o2)cc1 | inconclusive: 5.8 µM [falling, single point] |
| O=C(CN1C(=O)NC2(CCCCCCC2)C1=O)NCc1ccccc1Cl | inconclusive: 0.82 µM [activator, partial curve, poor fit] |
| CC(C)[C@H](NC(=O)c1c(F)cccc1F)C(=O)N1CCN(c2ccc(F)cc2)CC1 | inconclusive: 2.91 µM [falling, single point] |
| CCOc1ccc(-c2cnc(NCc3cccc(Cl)c3)n2C)cc1 | inactive |
| N=C1/C(=C\c2ccc(SCc3ccccc3)o2)C(=O)N=C2SC(CC(=O)N3CCOCC3)=NN12 | inconclusive: 23.1 µM [falling, single point] |
| COc1ccccc1NC(=O)C1CCCN(c2ncnc3c2nc2n3CCCCC2)C1 (stereo not given) | inconclusive: 29.1 µM [falling, single point] |
| CCOc1cccc(C(=O)Nc2ccncc2)c1 | inconclusive: 18.4 µM [falling, single point] |
| Cc1cc(Cn2nc(C(=O)NCc3cccc(C(F)(F)F)c3)cc2-c2ccccc2)on1 | inconclusive: 18.4 µM [falling, single point] |
| O=C(COc1ccc(S(=O)(=O)N2CCCC2)cc1Cl)NCc1cccnc1 | inactive |
| O=C(c1ccc([N+](=O)[O-])o1)N1CCc2ccccc2C1 | inconclusive: 20.6 µM [falling, partial curve] |
| C=CCSc1nc2c(c(=O)[nH]c(=O)n2C)n1Cc1ccc(C)cc1 | inconclusive: 2.91 µM [falling, single point] |
| Clc1cc2c(c(Cn3cnc4ccccc43)c1)OCOC2 | inconclusive: 5.8 µM [falling, full curve, poor fit] |
| Cc1nc2cc(-c3cccc(F)c3)nn2c(C)c1CCC(=O)NC1CCCCC1 | inconclusive: 1.46 µM [falling, full curve] |
| O=C(N/N=C/c1ccc(F)cc1)c1cccc(NC(=O)c2ccc(F)cc2)c1 | inconclusive: 23.1 µM [falling, partial curve, poor fit] |
| COc1ccc(-c2nn(C)c3sc(C(=O)N4CCN(c5cc(Cl)ccc5C)CC4)cc23)cc1OC | inactive |

| Compound | Potency |
| --- | --- |
| Cc1onc(-c2c(F)cccc2Cl)c1C(=O)Nc1cccc(S(=O)(=O)N2CCCCC2)c1 | inconclusive: 32.6 µM [falling, partial curve, poor fit] |
| Cc1ccc(S(=O)(=O)N2[C@@H](c3ccc(C(C)(C)C)cc3)C(C(=O)O)=CC[C@H]2c2cccs2)cc1 | inconclusive: 29.1 µM [falling, single point] |
| O=C(CN1CCC(C(=O)c2cccc(F)c2)CC1)NCc1cccs1 | inconclusive: 18.4 µM [falling, single point] |
| O=C(NCC(c1ccc(F)cc1)N1CCOCC1)c1cc(F)c(F)c(F)c1F (stereo not given) | inconclusive: 2.59 µM [activator, full curve, poor fit] |
| C/C(=N\Nc1nc2ccccc2s1)c1ccc(Br)s1 | inconclusive: 25.9 µM [falling, single point] |
| CC(C)OCCCNC(=S)N1CCC(C(=O)c2ccc3c(c2)OCCO3)CC1 | inconclusive: 25.9 µM [falling, single point] |
| Fc1ccc(-c2cnn3c(-c4ccncc4)ccnc23)cc1 | inconclusive: 0.517 µM [activator, full curve] |
| O=[N+]([O-])c1ccc(Sc2nnnn2-c2ccccc2)c(Cl)c1 | inconclusive: 32.6 µM [falling, single point] |
| O=C(N/N=C/c1c(O)n(-c2ccc(Cl)cn2)c(=O)c2ccccc12)C1CC1 | inconclusive: 29.1 µM [falling, single point] |
| CC1CCc2c(sc(NC(=O)c3ccccc3)c2C(=O)Nc2ccccc2)C1 (stereo not given) | inactive |
| CN1CCN(C2=C(NS(=O)(=O)c3cccs3)C(=O)c3ccccc3C2=O)CC1 | inconclusive: 32.6 µM [falling, single point] |
| COc1cc(/C=N/Nc2ncc(C(F)(F)F)cc2Cl)cc(OC)c1O | inactive |
| CCOC(=O)CSc1nc2ccc(NC(=O)COc3ccccc3)cc2s1 | inactive |
| O=C(NCCc1ccccc1F)C1CCCN1S(=O)(=O)c1ccccc1 (stereo not given) | inconclusive: 1.03 µM [falling, full curve, poor fit] |
| COC(=O)CSc1nnc(-c2ccccn2)n1Cc1ccco1 | inactive |
| CC(=O)N1CCN(c2ccc(NC(=O)c3ccc([N+](=O)[O-])o3)cc2Cl)CC1 | inconclusive: 10.3 µM [falling, partial curve] |
| COc1ccc(Br)cc1C(=O)Nc1ccc(C(=O)NCC(C)C)cc1 | inconclusive: 0.731 µM [falling, full curve, poor fit] |
| CCC(c1nnnn1CCc1ccccc1)N(Cc1ccco1)Cc1cc2cc(C)cc(C)c2[nH]c1=O (stereo not given) | inconclusive: 23.1 µM [falling, single point] |
| Cc1cccc(CSc2cn(CC(=O)N3CCCCCC3)c3ccccc23)c1 | inconclusive: 29.1 µM [falling, single point] |
| O=C(O)c1ccc(/C=N/Nc2ccc(F)cc2F)cc1 | inconclusive: 9.2 µM [activator, partial curve] |
| CCn1c(=NC(=O)CS(=O)(=O)c2ccc(C)cc2)sc2cccc(OC)c21 | active: 23.1 µM |
| Cc1cc[n+](CC(=O)c2ccccc2)c2ccccc12 | inactive |

Sorted by number of heavy atoms (rising): 11 of the compounds above.

| Compound | Potency |
| --- | --- |
| C/C(=N\Nc1nc2ccccc2s1)c1ccc(Br)s1 | inconclusive: 25.9 µM [falling, single point] |
| Cc1cc[n+](CC(=O)c2ccccc2)c2ccccc12 | inactive |
| O=[N+]([O-])c1ccc(Sc2nnnn2-c2ccccc2)c(Cl)c1 | inconclusive: 32.6 µM [falling, single point] |
| COC(=O)CSc1nnc(-c2ccccn2)n1Cc1ccco1 | inactive |
| COc1cc(/C=N/Nc2ncc(C(F)(F)F)cc2Cl)cc(OC)c1O | inactive |
| O=C(NCCc1ccccc1F)C1CCCN1S(=O)(=O)c1ccccc1 (stereo not given) | inconclusive: 1.03 µM [falling, full curve, poor fit] |
| CCn1c(=NC(=O)CS(=O)(=O)c2ccc(C)cc2)sc2cccc(OC)c21 | active: 23.1 µM |
| O=C(NCC(c1ccc(F)cc1)N1CCOCC1)c1cc(F)c(F)c(F)c1F (stereo not given) | inconclusive: 2.59 µM [activator, full curve, poor fit] |
| Cc1onc(-c2c(F)cccc2Cl)c1C(=O)Nc1cccc(S(=O)(=O)N2CCCCC2)c1 | inconclusive: 32.6 µM [falling, partial curve, poor fit] |
| Cc1ccc(S(=O)(=O)N2[C@@H](c3ccc(C(C)(C)C)cc3)C(C(=O)O)=CC[C@H]2c2cccs2)cc1 | inconclusive: 29.1 µM [falling, single point] |
| CCC(c1nnnn1CCc1ccccc1)N(Cc1ccco1)Cc1cc2cc(C)cc(C)c2[nH]c1=O (stereo not given) | inconclusive: 23.1 µM [falling, single point] |

Next entries follow.

| Compound | Potency |
| --- | --- |
| CN(C)c1ccc(/C=C2\Oc3ccc(C#Cc4cccc(N)c4)cc3C2=O)cc1 | inconclusive: 29.1 µM [falling, single point] |
| CC1(C)C(=O)Nc2ccccc2N1C(=O)COc1ccccc1C#N | inactive |
| CC(=O)Nc1ccc(N/C=C/C(=O)c2ccc(C)o2)cc1 | inconclusive: 20.6 µM [activator, single point] |
| C=C1[C@@H](O)[C@H](CC(C)C)N(Cc2ccccc2Br)S1(=O)=O | inconclusive: 25.9 µM [activator, single point] |
| CCCOc1ccc(N2C(=O)CC(N3CCN(c4ccc([N+](=O)[O-])cc4)CC3)C2=O)cc1 (stereo not given) | inconclusive: 29.1 µM [falling, single point] |
| Cc1ccccc1-n1nc(CO)c(C(=O)NCCc2ccccc2)n1 | inactive |
| COc1ccc(CSC(=N)N)cc1[N+](=O)[O-] | inactive |
| COc1cccc(NC(=O)C(=O)NCC(c2cccnc2)N2CCN(c3ccccc3)CC2)c1 (stereo not given) | inconclusive: 29.1 µM [falling, single point] |
| CCN1CCN(S(=O)(=O)c2ccc(Cl)c(C(=O)NC3CCC(C)CC3)c2)CC1 (stereo not given) | inconclusive: 0.206 µM [falling, full curve, poor fit] |
| CCCn1c2c(c(=N)c3c1CCC3)CCC2 | active: 7.31 µM |
| COc1ccc(C(=S)N2CCOCC2)cc1OC(=O)c1ccccc1Cl | inconclusive: 16.4 µM [falling, partial curve, poor fit] |
| O=C(Nc1cccc(C(F)(F)F)c1)C(Sc1ncnc2ccccc12)c1ccccc1 (stereo not given) | inconclusive: 16.4 µM [falling, partial curve, poor fit] |
| COCc1ccc(-c2c(-c3cc(OC)cc(OC)c3)oc(=O)c3cc(OC)c(OC)cc23)cc1 | inactive |
| O=C(Cc1csc(-c2ccccc2)n1)NCc1cccs1 | inactive |
| Cn1c(-c2ccccc2[N+](=O)[O-])[n+](C)c2ccccc21 | inconclusive: 16.4 µM [falling, partial curve, poor fit] |
| O=C(C1CCCN(S(=O)(=O)c2cc(Cl)ccc2Cl)C1)N1CCCC1 (stereo not given) | inconclusive: 16.4 µM [falling, single point] |
| O=C(CCc1c[nH]c2ccccc12)NCc1ccncc1 | inactive |
| O=[N+]([O-])c1ccc(-c2nc(NCc3ccccc3)c3ccccc3n2)cc1 | inconclusive: 25.9 µM [falling, single point] |
| CCCCOC(=O)c1ccc(NC(=O)COC(=O)CSc2nc(C)cc(C)n2)cc1 | inconclusive: 11.6 µM [activator, partial curve, poor fit] |
| CC(C)(C)c1ccc(OCCC(=O)Nc2cccc(S(=O)(=O)N3CCCCC3)c2)cc1 | inconclusive: 23.1 µM [falling, single point] |
| O=C(Nc1ccc2c(c1)OCCO2)C(=S)NCc1ccccc1 | inconclusive: 18.4 µM [activator, partial curve, poor fit] |

2 of these compounds, reformatted:
CCCCOC(=O)c1ccc(NC(=O)COC(=O)CSc2nc(C)cc(C)n2)cc1
  Potency: inconclusive: 11.6 µM [activator, partial curve, poor fit]
CC(C)(C)c1ccc(OCCC(=O)Nc2cccc(S(=O)(=O)N3CCCCC3)c2)cc1
  Potency: inconclusive: 23.1 µM [falling, single point]
